These are yes or no findings as the source states them, for the method shown. In cells and extracts the contact can be indirect. Binding can be weak; no strength is given. Tags and fused reporters may be left off the sequences shown.
Molecular target: basic-helix-loop-helix-S/T (bHLH-S/T) of SRC-1, GST fusion
Experiment: pull-down; GST-fused full-length or fragmented protein on GST-beads, incubated overnight at 4 °C with recombinant protein expressed by 293T cells; Western blot; only the target purified

B1: IRF1, tagged, expressed in 293T cells (protein, UniProt P10914 1-325)
chain: MPITRMRMRPWLEMQINSNQIPGLIWINKEEMIFQIPWKHAAKHGWDINKDACLFRSWAIHTGRYKAGEKEPDPKTWKANFRCAMNSLPDIEEVKDQSRNKGSSAVRVYRMLPPLTKNQRKERKSKSSRDAKSKAKRKSCGDSSPDTFSDGLSSSTLPDDHSSYTVPGYMQDLEVEQALTPALSPCAVSSTLPDWHIPVEVVPDSTSDLYNFQVSPMPSTSEATTDEDEEGKLPEDIMKLLEQSEWQPTNVDGKGYLLNEPGVQPTSVYGDFSCKEEPEIDSPGGDIGLSLQRVFTDLKNMDATWLDSLLTPVRLPSIQAIPCAP
binding: binds
